Here are results for one substance from article PMC13133936.

Chains of the proteins cited; added tags and fusions are not shown.
UniProt Q9HYV0: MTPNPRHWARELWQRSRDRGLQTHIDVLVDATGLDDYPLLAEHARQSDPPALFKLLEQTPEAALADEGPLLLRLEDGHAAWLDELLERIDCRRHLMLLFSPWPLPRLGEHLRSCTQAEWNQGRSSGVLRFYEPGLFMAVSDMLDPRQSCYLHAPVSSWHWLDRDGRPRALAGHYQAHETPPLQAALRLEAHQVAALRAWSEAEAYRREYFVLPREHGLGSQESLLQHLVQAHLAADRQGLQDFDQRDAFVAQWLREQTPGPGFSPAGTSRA

Results are given in words; binding and its absence hold for the method and conditions named. Some results given as binding are weak or reduced against the parent protein; the word gives no strength.

In this test the target is Tla1 (PA3293), type VI lipase adapter protein, bacterial two-hybrid fusion (Pseudomonas aeruginosa (PAO1)) (UniProt Q9HYV0). In words: two-hybrid; bacterial adenylate cyclase two-hybrid (BACTH): proteins or domains fused to the T18 or T25 domain of B. pertussis adenylate cyclase, coproduced in E. coli BTH101, spotted on X-gal indicator plates; blue colony reflects interaction; triplicate.

With “Tla1 (PA3293), type VI lipase adapter protein, bacterial two-hybrid fusion (from UniProt Q9HYV0 1-271)”, the binding result is given as “binds”.
